Assay [1] concerns the target Ded1 (Saccharomyces cerevisiae (endogenous in yeast extract)) (UniProt P06634). The experiment in a line: co-IP; Ded1-specific IgG on protein A-Sepharose beads with extracts (300 µg protein) of yeast G50 strains each expressing one 2HA-tagged SRP protein; 1x PBS with BSA and heparin, 2 h, 4 °C; anti-HA Western blot; pre-immune IgG as control; also with RNase A (1 mg/mL) digestion of the bound complexes before washing (signals reduced but still more than the control).

The chains behind the UniProt entries cited, without tags or fusion partners.
UniProt P06634: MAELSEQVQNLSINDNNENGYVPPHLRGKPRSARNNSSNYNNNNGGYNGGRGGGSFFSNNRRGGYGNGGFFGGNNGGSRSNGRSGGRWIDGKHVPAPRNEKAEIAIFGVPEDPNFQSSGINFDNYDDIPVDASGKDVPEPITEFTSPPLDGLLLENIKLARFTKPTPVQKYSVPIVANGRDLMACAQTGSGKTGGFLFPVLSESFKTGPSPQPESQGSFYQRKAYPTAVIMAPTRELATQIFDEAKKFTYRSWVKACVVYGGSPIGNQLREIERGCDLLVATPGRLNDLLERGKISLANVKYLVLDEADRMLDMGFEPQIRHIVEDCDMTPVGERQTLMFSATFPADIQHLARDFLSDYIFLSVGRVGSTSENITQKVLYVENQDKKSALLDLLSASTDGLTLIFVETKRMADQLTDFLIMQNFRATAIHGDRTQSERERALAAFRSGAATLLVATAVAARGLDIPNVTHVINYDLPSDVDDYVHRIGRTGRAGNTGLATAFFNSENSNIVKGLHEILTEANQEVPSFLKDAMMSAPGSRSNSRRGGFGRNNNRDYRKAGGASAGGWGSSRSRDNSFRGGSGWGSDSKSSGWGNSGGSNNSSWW

Another assay has as its target T1, Recombinant Ded1-His (Saccharomyces cerevisiae, UniProt P06634 1-604).
T1 construct: Ded1, DEAD-box RNA helicase of budding yeast, expressed from the pET22b plasmid; also called purified Ded1
The assay is described as follows: co-IP; purified Ded1 (4 µg) incubated with one purified SRP protein (4-6 µg), no RNA, 1x PBS with 2 mM MgCl2, 45 min, 30 °C; recovered with Ded1-specific IgG cross-linked to protein A-Sepharose beads; SDS-PAGE, Coomassie blue; both purified.

No constants are given. Whether binding was seen depends on the method and setting. For some assays here: Binding seen in cells or lysates may run through a third protein. Some entries that bind do so weakly or less than the wild type. Where a sequence is shown, tags or fusion partners need not be part of it.

B1: His-tagged Sec65 (natural protein, yeast (S. cerevisiae), UniProt P29478 1-273, looked up)
chain: MPRLEEIDDFNDIDDLDMELAELDPSLRTPIAPKITPKVVRSQDQENPAFLPGTNNNSNSNNNSSNEKEQLSFINPKTGKVERSEAISKKDLEEVKRFQVLYPCYFDINRSHKEGRRVPKELAVENPLAKTMADAVRELGILCIFEGEKCHPQDFGNPGRIRVLFKENGQLIGAATKFKGGKRQLMKAVGEYMKRHPTTIESLREIPYGPDFDNIEFKKIPRVKGFKMNEIVPLHSPFLMGHPMTKSVYETPKITAAEKSFKPPKNKYKVVRR
notes: Sec65 of yeast, cloned into the XhoI and BamHI sites of pET19b; source: E. coli Rosetta (DE3), purified (Ni-NTA)
Regarding B1, the binding entry in assay [1] is “binds”.

B2: His-tagged SRP21 (protein, UniProt P32342 1-167)
chain: MSVKPIDNYITNSVRLFEVNPSQTLFSISYKPPTQKTDTKVSFRTHNSHLSLNYKFTTNKSKDVSRLLSALGPRGVSITPGKIEKIAQSKKKNNKIKESSKKIKGKSIQDIVGLATLIVNTDVEKSDPAAKKTATEPKQKANAVQNNNGNSAASKKKKNKNKGKKKR
With B2, the binding entry with Recombinant Ded1-His was “binds weakly”.

B3: SRP21∆73 (domain or fragment, UniProt P32342 1-94)
chain: MSVKPIDNYITNSVRLFEVNPSQTLFSISYKPPTQKTDTKVSFRTHNSHLSLNYKFTTNKSKDVSRLLSALGPRGVSITPGKIEKIAQSKKKNN
As for B3, the binding entry in the assay with Recombinant Ded1-His was “binds weakly”.

B4: HA-tagged SRP101 (protein, UniProt P32916 1-621)
chain: MFDQLAVFTPQGQVLYQYNCLGKKFSEIQINSFISQLITSPVTRKESVANANTDGFDFNLLTINSEHKNSPSFNALFYLNKQPELYFVVTFAEQTLELNQETQQTLALVLKLWNSLHLSESILKNRQGQNEKNKHNYVDILQGIEDDLKKFEQYFRIKYEESIKQDHINPDNFTKNGSVPQSHNKNTKKKLRDTKGKKQSTGNVGSGRKWGRDGGMLDEMNHEDAAKLDFSSSNSHNSSQVALDSTINKDSFGDRTEGGDFLIKEIDDLLSSHKDEITSGNEAKNSGYVSTAFGFLQKHVLGNKTINESDLKSVLEKLTQQLITKNVAPEAADYLTQQVSHDLVGSKTANWTSVENTARESLTKALTQILTPGVSVDLLREIQSKRSKKDEEGKCDPYVFSIVGVNGVGKSTNLSKLAFWLLQNNFKVLIVACDTFRSGAVEQLRVHVENLAQLMDDSHVRGSKNKRGKTGNDYVELFEAGYGGSDLVTKIAKQAIKYSRDQNFDIVLMDTAGRRHNDPTLMSPLKSFADQAKPDKIIMVGEALVGTDSVQQAKNFNDAFGKGRNLDFFIISKCDTVGEMLGTMVNMVYATGIPILFVGVGQTYTDLRTLSVKWAVNTLMS
Regarding B4, the binding result in assay [1] is on record as “binds”.

B5: His-tagged SRP14 (natural protein, yeast (S. cerevisiae), UniProt P38985 1-146, looked up)
chain: MANTGCLSPGAFLSKVPEFFQTANEKHITVRLTAKRLIEHDPVEGNLEFDSTNHPDYDVSKKASEISVSSRSDREYPLLIRMSYGSHDKKTKCSTVVKASELDQFWQEYSSVFKGGMQNLIKKKKKKSKNGTISKTGKKNKVAKKN
notes: SRP14 of yeast, subcloned into the NdeI and XhoI sites of pET22b; source: E. coli Rosetta (DE3), purified (Ni-NTA)
For the molecule B5, the binding result in assay [1] is recorded as “binds”.

The values are drawn from article PMC11206880, “The RNA Helicase Ded1 from Yeast Is Associated with the Signal Recognition Particle and Is Regulated by SRP21” (Molecules, 2024).
